Data reported in publication PMC11322867.
No constants are given. Whether binding was seen depends on the method and setting. In cells and extracts the contact can be indirect. Some entries that bind do so weakly or less than the wild type.

The chains behind the UniProt entries cited, without tags or fusion partners.
UniProt Q9HAU4: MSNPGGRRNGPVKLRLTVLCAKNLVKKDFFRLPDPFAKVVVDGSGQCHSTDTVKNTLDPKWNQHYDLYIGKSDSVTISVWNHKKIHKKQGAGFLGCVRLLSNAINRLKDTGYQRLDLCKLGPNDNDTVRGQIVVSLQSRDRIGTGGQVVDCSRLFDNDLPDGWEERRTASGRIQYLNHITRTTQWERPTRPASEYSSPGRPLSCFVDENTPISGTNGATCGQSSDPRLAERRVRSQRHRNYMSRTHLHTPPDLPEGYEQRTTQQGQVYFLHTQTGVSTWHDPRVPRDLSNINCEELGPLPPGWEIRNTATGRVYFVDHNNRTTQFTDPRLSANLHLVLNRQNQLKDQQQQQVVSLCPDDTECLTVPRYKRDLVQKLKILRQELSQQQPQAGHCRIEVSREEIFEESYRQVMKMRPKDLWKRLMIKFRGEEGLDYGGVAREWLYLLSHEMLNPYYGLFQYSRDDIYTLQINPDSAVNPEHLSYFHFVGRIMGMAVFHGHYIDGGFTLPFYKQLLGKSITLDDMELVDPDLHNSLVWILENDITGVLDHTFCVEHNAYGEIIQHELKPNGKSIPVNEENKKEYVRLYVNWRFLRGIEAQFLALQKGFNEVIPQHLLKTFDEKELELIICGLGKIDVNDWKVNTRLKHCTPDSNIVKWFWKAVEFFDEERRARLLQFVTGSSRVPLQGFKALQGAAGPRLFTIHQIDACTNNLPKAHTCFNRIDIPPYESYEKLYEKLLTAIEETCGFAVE

Target: T1, Guanosine triphosphate cyclohydrolase 1 (human (endogenous in HUVECs)) (UniProt P30793)
T1 sequence: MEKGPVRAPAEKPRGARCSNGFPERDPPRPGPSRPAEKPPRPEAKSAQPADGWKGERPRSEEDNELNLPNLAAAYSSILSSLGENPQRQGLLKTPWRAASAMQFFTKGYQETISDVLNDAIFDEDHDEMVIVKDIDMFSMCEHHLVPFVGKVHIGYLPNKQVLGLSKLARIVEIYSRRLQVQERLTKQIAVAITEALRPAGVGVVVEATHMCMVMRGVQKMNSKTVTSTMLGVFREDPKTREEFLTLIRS
Assay: co-IP; endogenous proteins in HUVEC lysate (Triton X-100 buffer); primary antibodies overnight at 4°C, MG132, Protein G Plus/Protein A-agarose beads 2 h at 4°C; reciprocal coIP, western blot

binding: binds
Substance: Smad-ubiquitination regulatory factor 2 (from UniProt Q9HAU4 1-748) (enzyme)
